Results: PMC10086756
Results are given in words; binding and its absence hold for the method and conditions named. In cells and extracts the contact can be indirect. Some results given as binding are weak or reduced against the parent protein; the word gives no strength.

The chains behind the UniProt entries cited, without tags or fusion partners.
UniProt Q9Y2S6: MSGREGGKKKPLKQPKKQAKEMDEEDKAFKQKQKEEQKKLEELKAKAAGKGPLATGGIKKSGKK

Molecular target: Translation machinery associated 7 homolog (TMA7) (human (endogenous in TU212)) (UniProt Q9Y2S6)
Test: co-IP; TU212 cell lysate; TMA7 antibody on protein A+G magnetic beads, incubated with the lysate at 4 C overnight; washed, boiled with SDS, Western blot

binding: binds
B1: Ubiquitin like modifier activating enzyme 2 (UBA2) (protein, UniProt Q9UBT2 1-640)
chain: MALSRGLPRELAEAVAGGRVLVVGAGGIGCELLKNLVLTGFSHIDLIDLDTIDVSNLNRQFLFQKKHVGRSKAQVAKESVLQFYPKANIVAYHDSIMNPDYNVEFFRQFILVMNALDNRAARNHVNRMCLAADVPLIESGTAGYLGQVTTIKKGVTECYECHPKPTQRTFPGCTIRNTPSEPIHCIVWAKYLFNQLFGEEDADQEVSPDRADPEAAWEPTEAEARARASNEDGDIKRISTKEWAKSTGYDPVKLFTKLFKDDIRYLLTMDKLWRKRKPPVPLDWAEVQSQGEETNASDQQNEPQLGLKDQQVLDVKSYARLFSKSIETLRVHLAEKGDGAELIWDKDDPSAMDFVTSAANLRMHIFSMNMKSRFDIKSMAGNIIPAIATTNAVIAGLIVLEGLKILSGKIDQCRTIFLNKQPNPRKKLLVPCALDPPNPNCYVCASKPEVTVRLNVHKVTVLTLQDKIVKEKFAMVAPDVQIEDGKGTILISSEEGETEANNHKKLSEFGIRNGSRLQADDFLQDYTLLINILHSEDLGKDVEFEVVGDAPEKVGPKQAEDAAKSITNGSDDGAQPSTSTAQEQDDVLIVDSDEEDSSNNADVSEEERSRKRKLDEKENLSAKRSRIEQKEELDDVIALD
